In this assay the target is taxol-stabilized microtubules. The assay is described as follows: co-sedimentation; microtubule spin-down: 500 ng of dialyzed MBP-CEP215 (1–300) in PBS incubated with taxol-stabilized microtubules or tubulin, pelleted through a 1 M sucrose cushion in BRB80, Coomassie-stained gel; both purified.

No constants are given. Whether binding was seen depends on the method and setting. A result given as binding can be weak or reduced; the word gives no strength. Tags and fused reporters may be left off the sequences shown.

B1: MBP-CEP215 (1–300) (domain or fragment, UniProt Q96SN8 1-300)
chain: MMDLVLEEDVTVPGTLSGCSGLVPSVPDDLDGINPNAGLGNGLLPNVSEETVSPTRARNMKDFENQITELKKENFNLKLRIYFLEERMQQEFHGPTEHIYKTNIELKVEVESLKRELQEREQLLIKASKAVESLAEAGGSEIQRVKEDARKKVQQVEDLLTKRILLLEKDVTAAQAELEKAFAGTETEKALRLRLESKLSEMKKMHEGDLAMALVLDEKDRLIEELKLSLKSKEALIQCLKEEKSQMACPDENVSSGELRGLCAAPREEKERETEAAQMEHQKERNSFEERIQALEEDLR
Turning to B1, the binding entry is recorded as “binds”.

Source of the values: PMC4802056.
